PubChem BioAssay AID1259254 – NCATS | 2017
Purpose: 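Finding genes that stop cells copying their DNA twice in one cycle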 (primary screen). System: human HCT116 colorectal cancer cells. Knock-down reagent: single siRNA against human genes. Timing: 3 days. Measured: 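Imaged Hoechst DNA stain sorts each cell into a cycle phase by DNA amount; per plate, G2 fraction set to 0% for non-targeting and 100% for GMNN siRNA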. Direction: G2 robust z-score: higher = more G2 cells, more excess DNA replication. Call rule: 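Active siRNAs have a G2 robust z of 5 or more median absolute deviations over the median, which in these data means about 38% or higher of GMNN control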.
The deposit covers about 59,000 reagents; this is a random part of them. In the full data, about 1,550 (2.6%) are marked active. 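G2 share is only a proxy for re-replication; each gene was hit by three separate siRNAs, and active genes were retested.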 Reagents against one gene are numbered here. Not all columns of the deposit are shown. Not stated in the record: the amount of reagent.

G2 robust z-score, by target gene and reagent
PLEKHA1 (pleckstrin homology domain containing A1): #1 0.192 inactive; #2 1.35 inactive; #3 1.04 inactive
NAPA (NSF attachment protein alpha): #1 -0.0522 inactive; #2 0.283 inactive; #3 -0.164 inactive
SPRY4 (sprouty RTK signaling antagonist 4): #1 1.14 inactive; #2 0.447 inactive; #3 4.14 inactive
ARIH2 (ariadne RBR E3 ubiquitin protein ligase 2): #1 -0.45 inactive; #2 -0.264 inactive; #3 0.871 inactive
SLFNL1 (schlafen like 1): #1 0.971 inactive; #2 -0.547 inactive; #3 -0.358 inactive
HEMGN (hemogen): #1 0.352 inactive; #2 0.00928 inactive; #3 -1.15 inactive
SLC16A3: #1 2.83 inactive; #2 -0.295 inactive; #3 0.149 inactive
TMEM255A (transmembrane protein 255A): #1 0.0237 inactive; #2 1.2 inactive; #3 0.116 inactive
OR51B6 (olfactory receptor family 51 subfamily B member 6): #1 0.169 inactive; #2 0.685 inactive; #3 -0.27 inactive
SRP9 (signal recognition particle 9): #1 1.45 inactive; #2 0.177 inactive; #3 -0.315 inactive
TCF3 (transcription factor 3): #1 4.36 inactive; #2 2.57 inactive; #3 -0.797 inactive
CYP4F12 (cytochrome P450 family 4 subfamily F member 12): #1 1.39 inactive; #2 2.96 inactive; #3 0.634 inactive
CHIT1 (chitinase 1): #1 -0.357 inactive; #2 0.446 inactive; #3 2.87 inactive
SPIN3 (spindlin family member 3): #1 0.748 inactive; #2 -0.595 inactive; #3 1.35 inactive
NT5DC1 (5'-nucleotidase domain containing 1): #1 -0.458 inactive; #2 1.03 inactive; #3 -0.763 inactive
COX7C (cytochrome c oxidase subunit 7C): #1 -1.29 inactive; #2 -0.776 inactive; #3 -1.25 inactive
IGBP1C (IGBP1 family member C): #1 -0.614 inactive; #2 1.03 inactive; #3 -0.34 inactive
FLJ16734 (retired record): #1 0.991 inactive; #2 1.44 inactive; #3 -0.137 inactive
CCDC69 (coiled-coil domain containing 69): #1 0.763 inactive; #2 0.311 inactive; #3 -1.02 inactive
FAM168A (family with sequence similarity 168 member A): #1 -0.36 inactive; #2 0.26 inactive; #3 0.786 inactive
POU2F3 (POU class 2 homeobox 3): #1 -0.355 inactive; #2 -0.746 inactive; #3 1.02 inactive
SEC61B (SEC61 translocon subunit beta): #1 0.221 inactive; #2 1.07 inactive; #3 0.8 inactive
IGSF3 (immunoglobulin superfamily member 3): #1 -1.14 inactive; #2 0.531 inactive; #3 -0.58 inactive
